In article PMC12307761:
No constants are given. Whether binding was seen depends on the method and setting. In cells and extracts the contact can be indirect. Some entries that bind do so weakly or less than the wild type. Tags and fused reporters may be left off the sequences shown.

Chains of the proteins cited; added tags and fusions are not shown.
UniProt O60260: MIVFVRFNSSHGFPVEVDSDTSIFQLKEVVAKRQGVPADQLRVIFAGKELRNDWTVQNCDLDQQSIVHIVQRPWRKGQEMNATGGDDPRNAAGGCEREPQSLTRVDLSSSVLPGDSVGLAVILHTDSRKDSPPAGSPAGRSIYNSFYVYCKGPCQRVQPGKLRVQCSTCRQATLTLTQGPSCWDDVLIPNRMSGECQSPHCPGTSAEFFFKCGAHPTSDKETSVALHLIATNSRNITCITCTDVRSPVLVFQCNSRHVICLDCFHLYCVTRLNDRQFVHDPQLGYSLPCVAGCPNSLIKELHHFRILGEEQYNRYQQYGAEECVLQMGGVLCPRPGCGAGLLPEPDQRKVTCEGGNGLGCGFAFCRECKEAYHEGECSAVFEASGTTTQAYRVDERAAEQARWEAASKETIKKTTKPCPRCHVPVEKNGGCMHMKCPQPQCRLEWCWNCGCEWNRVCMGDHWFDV

Legend:
[1] = molecular target: T1, ANKZF1-GFP (Ankyrin repeat and Zinc Finger Peptidyl tRNA Hydrolase 1, C-terminally GFP tagged) (human) (UniProt Q9H8Y5); assay: co-IP; HEK293T cells transfected with ANKZF1-GFP and mCherry-Parkin, with mitochondrial stress by Mito-PMD expression or CCCP treatment; IP with anti-GFP antibody (pre-immune antisera as control) on Protein A/G Sepharose beads; blots probed with anti-GFP, anti-Parkin and anti-LC3
T1 sequence: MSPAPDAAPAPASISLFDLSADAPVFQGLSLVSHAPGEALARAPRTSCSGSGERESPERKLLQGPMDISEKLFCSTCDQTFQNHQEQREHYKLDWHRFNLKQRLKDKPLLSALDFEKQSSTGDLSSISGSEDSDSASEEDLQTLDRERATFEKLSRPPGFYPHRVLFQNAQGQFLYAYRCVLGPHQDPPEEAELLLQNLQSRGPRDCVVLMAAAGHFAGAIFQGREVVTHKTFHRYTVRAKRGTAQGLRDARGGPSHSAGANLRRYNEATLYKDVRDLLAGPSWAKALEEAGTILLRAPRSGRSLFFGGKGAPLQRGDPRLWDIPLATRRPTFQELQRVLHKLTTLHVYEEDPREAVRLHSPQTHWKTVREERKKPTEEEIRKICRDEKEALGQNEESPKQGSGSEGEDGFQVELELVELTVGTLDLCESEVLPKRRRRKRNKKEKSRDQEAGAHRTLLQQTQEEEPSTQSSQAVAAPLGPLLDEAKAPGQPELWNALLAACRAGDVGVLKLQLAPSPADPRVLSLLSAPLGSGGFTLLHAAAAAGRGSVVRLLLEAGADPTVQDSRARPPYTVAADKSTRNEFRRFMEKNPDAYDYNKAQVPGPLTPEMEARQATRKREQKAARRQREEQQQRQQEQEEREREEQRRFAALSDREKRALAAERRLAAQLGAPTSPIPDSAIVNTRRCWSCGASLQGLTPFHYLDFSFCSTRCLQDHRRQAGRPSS

[2] = molecular target: T1, ANKZF1-GFP (Ankyrin repeat and Zinc Finger Peptidyl tRNA Hydrolase 1, C-terminally GFP tagged) (human); assay: condition: only unstressed control cells (Mito-BFP expression, without PMD or CCCP); co-IP; as a1, but unstressed control cells expressing Mito-BFP (no PMD, no CCCP); IP with anti-GFP antibody on Protein A/G Sepharose beads

binding [1]: binds
binding [2]: no binding
Substance: mCherry-Parkin (from UniProt O60260 1-465)
